According to the supplement of paper PMC3545927:
The entries are a selection whose mix differs from that of the whole data set.

Amino acid sequences for entries named in this document (tags omitted).
furin, P09958, UniProt P09958, whole entry: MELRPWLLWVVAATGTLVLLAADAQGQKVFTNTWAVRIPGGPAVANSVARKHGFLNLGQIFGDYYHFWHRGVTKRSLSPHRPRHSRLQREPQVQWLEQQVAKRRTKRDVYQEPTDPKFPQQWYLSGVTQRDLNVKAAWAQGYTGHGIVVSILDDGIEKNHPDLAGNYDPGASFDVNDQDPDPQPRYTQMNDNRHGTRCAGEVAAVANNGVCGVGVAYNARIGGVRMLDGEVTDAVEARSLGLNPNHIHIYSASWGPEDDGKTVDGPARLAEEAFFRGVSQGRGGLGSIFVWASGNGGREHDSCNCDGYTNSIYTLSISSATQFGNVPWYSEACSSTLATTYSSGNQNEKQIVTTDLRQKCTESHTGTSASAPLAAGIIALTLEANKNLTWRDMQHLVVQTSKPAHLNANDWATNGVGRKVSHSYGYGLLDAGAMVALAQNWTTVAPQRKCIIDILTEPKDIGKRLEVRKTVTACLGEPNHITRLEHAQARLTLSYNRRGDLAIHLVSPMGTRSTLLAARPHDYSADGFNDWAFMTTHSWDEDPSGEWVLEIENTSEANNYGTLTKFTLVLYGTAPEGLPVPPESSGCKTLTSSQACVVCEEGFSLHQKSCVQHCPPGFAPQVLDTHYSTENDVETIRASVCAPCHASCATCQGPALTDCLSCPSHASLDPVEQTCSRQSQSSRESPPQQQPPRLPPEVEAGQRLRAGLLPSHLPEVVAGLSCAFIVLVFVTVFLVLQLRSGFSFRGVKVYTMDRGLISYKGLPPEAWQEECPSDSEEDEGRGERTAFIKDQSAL

Molecular target: furin, P09958
Experiment: furin cleavage Z-score vs untreated control; higher = more cleavage, active = 3.5 or more, inactive = 1 or less, 8 variable residues between constant flanks
Summary of the method: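 Furin cleavage was scored on 8-mer peptides joined to a cDNA oligonucleotide and bound to magnetic beads at the N-terminus. Digestion with purified furin (1:10 enzyme:substrate, 0.01 ml, 50 mM HEPES pH 7.5, CaCl2, NaCl) lasted 7.5, 15 or 30 min. Freed DNA was tagged with adapters by PCR, sequenced and counted; the cleavage Z-score is the lowess-adjusted log count versus furin-free reactions, scaled by median absolute deviation.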

Sequence: CAENEVPCHRAGNASASA [HC2461]
- furin cleavage Z-score (7.5 min): 1.97
- furin cleavage Z-score (15 min): 1.76
- furin cleavage Z-score (30 min): 1.47

Sequence: CAVVCFSMSYAGNASASA [HC86]
- furin cleavage Z-score (7.5 min): inactive: -0.132
- furin cleavage Z-score (15 min): 1.31
- furin cleavage Z-score (30 min): inactive: 0.28

Sequence: CARNRRKRKGAGNASASA [FS-1562]
- furin cleavage Z-score (7.5 min): 1.48
- furin cleavage Z-score (15 min): 2.38
- furin cleavage Z-score (30 min): 2.16

Sequence: CAVVKRDVDEAGNASASA [FS-2201]
- furin cleavage Z-score (7.5 min): 1.71
- furin cleavage Z-score (15 min): 1.34
- furin cleavage Z-score (30 min): 2.32

Sequence: CADYSRFVRDAGNASASA [FS-18]
- furin cleavage Z-score (7.5 min): 1.97
- furin cleavage Z-score (15 min): 2.91
- furin cleavage Z-score (30 min): 2.73

Sequence: CARPARSATGAGNASASA [FS-2052]
- furin cleavage Z-score (7.5 min): 1.63
- furin cleavage Z-score (15 min): 2.59
- furin cleavage Z-score (30 min): 2.68

Sequence: CAELSRLRRLAGNASASA [FS-1192]
- furin cleavage Z-score (7.5 min): 1.8
- furin cleavage Z-score (15 min): 1.93
- furin cleavage Z-score (30 min): 2.71

Sequence: CALSERQNRSAGNASASA [FS-550]
- furin cleavage Z-score (7.5 min): 2.28
- furin cleavage Z-score (15 min): 1.08
- furin cleavage Z-score (30 min): 1.81

Sequence: CARKKRLEPTAGNASASA [FS-2154]
- furin cleavage Z-score (7.5 min): 1.02
- furin cleavage Z-score (15 min): 1.99
- furin cleavage Z-score (30 min): 2.51

Sequence: CAVWIPPLNVAGNASASA [HC590]
- furin cleavage Z-score (7.5 min): 1.75
- furin cleavage Z-score (15 min): 2.11
- furin cleavage Z-score (30 min): 1.01

Sequence: CAMSSRNFRFAGNASASA [FS-62]
- furin cleavage Z-score (7.5 min): 1.34
- furin cleavage Z-score (15 min): 1.29
- furin cleavage Z-score (30 min): 1.2

Sequence: CALRKRRKRKAGNASASA [FS-1030]
- furin cleavage Z-score (7.5 min): active: 10.7
- furin cleavage Z-score (15 min): active: 11.4
- furin cleavage Z-score (30 min): active: 9.12

Sequence: CARALRLVDGAGNASASA [FS-2410]
- furin cleavage Z-score (7.5 min): inactive: -0.828
- furin cleavage Z-score (15 min): inactive: -0.615
- furin cleavage Z-score (30 min): inactive: -0.629

Sequence: CAERSRVCRCAGNASASA [FS-123]
- furin cleavage Z-score (7.5 min): inactive: -0.711
- furin cleavage Z-score (15 min): inactive: 0.103
- furin cleavage Z-score (30 min): 2.18

Sequence: CARRQRRVAGAGNASASA [FS-2180]
- furin cleavage Z-score (7.5 min): 1.21
- furin cleavage Z-score (15 min): 1.08
- furin cleavage Z-score (30 min): 1.63

Sequence: CAAVHPTLVFAGNASASA [HC600]
- furin cleavage Z-score (7.5 min): 2.24
- furin cleavage Z-score (15 min): 1.33
- furin cleavage Z-score (30 min): 1.6

Sequence: CARHRRFRLDAGNASASA [FS-2024]
- furin cleavage Z-score (7.5 min): 1.24
- furin cleavage Z-score (15 min): 1.94
- furin cleavage Z-score (30 min): 2.02

Sequence: CARASRSIRIAGNASASA [FS-2893]
- furin cleavage Z-score (7.5 min): active: 3.6
- furin cleavage Z-score (15 min): active: 6.75
- furin cleavage Z-score (30 min): active: 7.27
